Drawing on PMC10354075, this text covers binding for 2 substances.

Sequences of proteins named here, by UniProt entry; tags and fusion partners are left off.
UniProt P08103: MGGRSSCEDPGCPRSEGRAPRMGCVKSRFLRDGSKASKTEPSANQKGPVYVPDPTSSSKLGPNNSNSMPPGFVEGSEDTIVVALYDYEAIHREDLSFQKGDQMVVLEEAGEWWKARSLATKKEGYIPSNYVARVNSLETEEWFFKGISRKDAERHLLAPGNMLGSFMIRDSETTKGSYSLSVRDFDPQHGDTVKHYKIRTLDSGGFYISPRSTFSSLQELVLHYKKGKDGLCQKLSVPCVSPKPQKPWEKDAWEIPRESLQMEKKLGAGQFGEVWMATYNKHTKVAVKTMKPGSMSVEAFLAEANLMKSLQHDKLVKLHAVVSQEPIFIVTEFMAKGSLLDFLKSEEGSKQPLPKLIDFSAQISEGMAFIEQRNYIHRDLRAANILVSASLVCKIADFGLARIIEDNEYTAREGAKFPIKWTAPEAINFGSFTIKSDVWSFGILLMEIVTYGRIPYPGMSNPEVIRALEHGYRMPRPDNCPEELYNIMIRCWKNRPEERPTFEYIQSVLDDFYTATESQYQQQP
UniProt Q6P4T0: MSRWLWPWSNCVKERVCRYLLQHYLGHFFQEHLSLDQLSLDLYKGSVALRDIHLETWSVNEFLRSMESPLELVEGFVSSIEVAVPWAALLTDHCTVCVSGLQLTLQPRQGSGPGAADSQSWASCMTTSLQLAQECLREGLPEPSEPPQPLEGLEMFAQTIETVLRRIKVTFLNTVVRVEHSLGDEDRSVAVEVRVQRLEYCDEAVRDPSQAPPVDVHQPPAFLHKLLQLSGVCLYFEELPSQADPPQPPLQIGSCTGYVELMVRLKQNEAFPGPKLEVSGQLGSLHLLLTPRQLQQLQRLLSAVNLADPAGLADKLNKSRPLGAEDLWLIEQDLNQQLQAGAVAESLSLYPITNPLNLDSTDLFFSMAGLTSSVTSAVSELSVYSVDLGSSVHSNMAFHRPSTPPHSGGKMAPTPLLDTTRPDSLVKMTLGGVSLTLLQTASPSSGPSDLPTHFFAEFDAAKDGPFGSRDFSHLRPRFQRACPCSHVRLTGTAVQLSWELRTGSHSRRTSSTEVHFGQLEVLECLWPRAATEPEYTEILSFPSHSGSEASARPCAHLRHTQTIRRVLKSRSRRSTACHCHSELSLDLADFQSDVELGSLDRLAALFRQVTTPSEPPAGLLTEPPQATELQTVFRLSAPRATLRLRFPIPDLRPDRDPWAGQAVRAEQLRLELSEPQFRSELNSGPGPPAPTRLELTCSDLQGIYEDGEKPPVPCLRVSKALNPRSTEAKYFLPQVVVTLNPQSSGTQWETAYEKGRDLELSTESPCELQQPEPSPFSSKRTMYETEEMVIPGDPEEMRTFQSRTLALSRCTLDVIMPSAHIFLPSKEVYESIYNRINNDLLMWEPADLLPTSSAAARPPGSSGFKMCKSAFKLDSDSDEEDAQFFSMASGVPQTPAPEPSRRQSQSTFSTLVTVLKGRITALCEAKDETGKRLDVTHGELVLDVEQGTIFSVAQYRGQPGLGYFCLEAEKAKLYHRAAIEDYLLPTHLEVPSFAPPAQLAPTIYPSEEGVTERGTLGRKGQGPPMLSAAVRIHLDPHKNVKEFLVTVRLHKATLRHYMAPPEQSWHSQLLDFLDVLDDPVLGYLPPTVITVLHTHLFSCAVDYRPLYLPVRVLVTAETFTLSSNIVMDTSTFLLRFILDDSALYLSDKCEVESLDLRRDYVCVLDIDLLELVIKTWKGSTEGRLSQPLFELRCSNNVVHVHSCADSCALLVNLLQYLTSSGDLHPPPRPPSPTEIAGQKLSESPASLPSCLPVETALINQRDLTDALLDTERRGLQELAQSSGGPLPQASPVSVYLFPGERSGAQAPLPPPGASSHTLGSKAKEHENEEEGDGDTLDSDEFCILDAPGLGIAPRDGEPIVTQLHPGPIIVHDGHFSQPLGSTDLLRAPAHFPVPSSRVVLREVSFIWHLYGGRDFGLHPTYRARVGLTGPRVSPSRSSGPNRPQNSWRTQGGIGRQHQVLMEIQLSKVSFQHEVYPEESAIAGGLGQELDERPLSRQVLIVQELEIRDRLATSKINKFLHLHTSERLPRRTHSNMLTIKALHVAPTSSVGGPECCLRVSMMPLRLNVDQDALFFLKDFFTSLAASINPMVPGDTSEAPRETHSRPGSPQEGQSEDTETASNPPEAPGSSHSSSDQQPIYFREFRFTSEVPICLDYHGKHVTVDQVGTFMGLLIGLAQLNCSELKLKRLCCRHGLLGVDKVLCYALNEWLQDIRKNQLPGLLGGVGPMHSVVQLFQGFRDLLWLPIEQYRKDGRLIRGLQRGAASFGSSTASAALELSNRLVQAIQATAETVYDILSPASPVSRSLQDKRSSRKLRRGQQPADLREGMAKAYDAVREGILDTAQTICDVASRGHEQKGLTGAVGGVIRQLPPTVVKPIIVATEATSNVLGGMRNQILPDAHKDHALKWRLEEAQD

No constants are given. Whether binding was seen depends on the method and setting. In cells and extracts the contact can be indirect. Some results given as binding are weak or reduced against the parent protein; the word gives no strength.

In the test the target is endogenous HCK (RAW264.7 macrophage cells) (mouse (endogenous in RAW264.7)) (UniProt P08103). The experiment in a line: co-IP; endogenous proteins in RAW264.7 macrophage cells, IP combined with immunoblotting.

Consider “ATG2A (endogenous, RAW264.7 macrophage cells) (from UniProt Q6P4T0 1-1914)”, for which the binding result is “binds”. On to “CBL (endogenous, RAW264.7 macrophage cells) (from UniProt P22682 1-913)”, for which the binding result is listed as “binds”.
